Measurements from the M2OR odorant receptor database.
This is a selection; strong and weak results do not stand in their true shares. The calls were merged from several studies; some rest on single wells.

Protein sequences, listed by entry. Tags and fused reporters are not part of them. Chains listed by the source or under a name are the forms on record and can include a tag or linker.
UniProt Q8VGK6, as listed by the source: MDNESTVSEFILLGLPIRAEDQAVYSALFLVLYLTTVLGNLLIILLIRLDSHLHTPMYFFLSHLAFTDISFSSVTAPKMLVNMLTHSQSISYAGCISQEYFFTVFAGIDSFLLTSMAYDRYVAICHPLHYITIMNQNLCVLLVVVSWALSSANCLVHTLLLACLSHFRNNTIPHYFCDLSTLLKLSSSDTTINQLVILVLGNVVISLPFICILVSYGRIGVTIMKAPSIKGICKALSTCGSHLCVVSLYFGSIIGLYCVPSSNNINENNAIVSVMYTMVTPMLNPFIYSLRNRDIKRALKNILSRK

Legend:
Settings in all cases: stereoisomer not certain
UniProt Q8VGJ3 = target: T1, UniProt Q8VGJ3
T1 sequence (whole entry): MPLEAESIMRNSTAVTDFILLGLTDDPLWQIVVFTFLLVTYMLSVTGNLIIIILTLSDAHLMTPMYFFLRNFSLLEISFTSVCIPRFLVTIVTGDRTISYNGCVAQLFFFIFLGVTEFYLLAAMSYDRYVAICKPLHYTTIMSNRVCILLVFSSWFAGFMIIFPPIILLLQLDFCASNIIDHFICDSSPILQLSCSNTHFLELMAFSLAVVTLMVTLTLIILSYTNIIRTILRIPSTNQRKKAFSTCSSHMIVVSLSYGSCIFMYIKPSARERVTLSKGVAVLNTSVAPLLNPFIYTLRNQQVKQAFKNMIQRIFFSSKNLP
How it was run: (§1)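 Transient luciferase assays in mammalian cell lines were common, though methods varied by source. The values come from published papers and their supplementary material, with extra details from the original authors when needed. Responsive refers to a measured signal the original authors judged statistically different from baseline, and non-responsive (inactive) to the remainder.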

UniProt Q8VGL0 = target: T2, UniProt Q8VGL0
T2 sequence (whole entry): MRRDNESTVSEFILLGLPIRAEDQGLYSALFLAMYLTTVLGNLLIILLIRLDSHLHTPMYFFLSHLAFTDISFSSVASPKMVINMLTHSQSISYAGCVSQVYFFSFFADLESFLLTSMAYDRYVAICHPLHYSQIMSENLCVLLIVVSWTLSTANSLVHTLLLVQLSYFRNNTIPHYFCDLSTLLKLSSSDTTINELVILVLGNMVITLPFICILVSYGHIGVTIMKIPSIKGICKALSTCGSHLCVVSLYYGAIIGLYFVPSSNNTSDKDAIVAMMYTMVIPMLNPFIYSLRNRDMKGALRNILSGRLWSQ
How it was run: as §1

UniProt Q8VGH1 = target: T3, UniProt Q8VGH1
T3 sequence (whole entry): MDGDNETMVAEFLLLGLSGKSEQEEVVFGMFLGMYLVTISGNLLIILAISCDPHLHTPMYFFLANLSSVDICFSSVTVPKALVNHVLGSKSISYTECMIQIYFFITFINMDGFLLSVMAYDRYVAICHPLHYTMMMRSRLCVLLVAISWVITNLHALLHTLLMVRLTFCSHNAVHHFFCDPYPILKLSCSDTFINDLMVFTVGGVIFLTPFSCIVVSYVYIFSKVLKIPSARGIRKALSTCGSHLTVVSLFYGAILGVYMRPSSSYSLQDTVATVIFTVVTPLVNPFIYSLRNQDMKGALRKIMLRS
How it was run: as §1

UniProt Q8VGJ1 = target: T4, UniProt Q8VGJ1
T4 sequence (whole entry): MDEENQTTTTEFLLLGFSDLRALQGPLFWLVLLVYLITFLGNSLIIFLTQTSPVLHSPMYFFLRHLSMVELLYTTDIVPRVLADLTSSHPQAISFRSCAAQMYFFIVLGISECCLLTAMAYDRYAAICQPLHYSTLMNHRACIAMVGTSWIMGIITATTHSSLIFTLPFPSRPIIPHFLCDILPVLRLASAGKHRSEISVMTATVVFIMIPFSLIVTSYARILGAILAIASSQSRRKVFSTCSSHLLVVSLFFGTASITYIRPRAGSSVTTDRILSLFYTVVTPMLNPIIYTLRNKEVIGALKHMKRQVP
How it was run: as §1

UniProt Q8VGJ5 = target: T5, UniProt Q8VGJ5
T5 sequence (whole entry): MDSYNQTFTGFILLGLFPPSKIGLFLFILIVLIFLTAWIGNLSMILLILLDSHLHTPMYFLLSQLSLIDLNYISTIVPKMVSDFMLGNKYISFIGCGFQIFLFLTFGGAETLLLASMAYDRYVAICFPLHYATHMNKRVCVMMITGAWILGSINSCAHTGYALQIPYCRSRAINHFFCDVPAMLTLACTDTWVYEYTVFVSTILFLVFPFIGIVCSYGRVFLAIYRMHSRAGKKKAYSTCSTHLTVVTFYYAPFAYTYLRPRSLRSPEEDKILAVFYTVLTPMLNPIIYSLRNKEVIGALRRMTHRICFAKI
How it was run: as §1

UniProt Q8VGL7 = target: T6, UniProt Q8VGL7
T6 sequence (whole entry): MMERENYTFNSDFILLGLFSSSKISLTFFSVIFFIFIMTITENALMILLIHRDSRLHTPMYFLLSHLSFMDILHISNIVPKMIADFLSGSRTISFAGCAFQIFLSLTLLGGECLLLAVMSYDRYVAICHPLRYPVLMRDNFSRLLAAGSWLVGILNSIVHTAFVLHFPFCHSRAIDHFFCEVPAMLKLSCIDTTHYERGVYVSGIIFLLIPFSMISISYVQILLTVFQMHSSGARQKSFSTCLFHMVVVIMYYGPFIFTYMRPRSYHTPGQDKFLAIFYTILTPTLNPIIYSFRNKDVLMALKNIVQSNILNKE
How it was run: as §1

UniProt Q8VGM2 = target: T7, UniProt Q8VGM2
T7 sequence (whole entry): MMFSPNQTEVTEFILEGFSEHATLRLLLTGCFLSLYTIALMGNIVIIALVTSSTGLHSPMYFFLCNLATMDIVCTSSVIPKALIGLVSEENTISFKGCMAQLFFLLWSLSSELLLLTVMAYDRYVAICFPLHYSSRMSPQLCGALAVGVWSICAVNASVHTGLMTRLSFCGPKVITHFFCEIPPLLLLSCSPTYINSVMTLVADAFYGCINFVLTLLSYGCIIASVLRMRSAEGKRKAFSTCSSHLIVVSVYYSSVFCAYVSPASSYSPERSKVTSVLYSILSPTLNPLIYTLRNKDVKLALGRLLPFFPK
How it was run: as §1

UniProt Q8VGP6 = target: T8, UniProt Q8VGP6
T8 sequence (whole entry): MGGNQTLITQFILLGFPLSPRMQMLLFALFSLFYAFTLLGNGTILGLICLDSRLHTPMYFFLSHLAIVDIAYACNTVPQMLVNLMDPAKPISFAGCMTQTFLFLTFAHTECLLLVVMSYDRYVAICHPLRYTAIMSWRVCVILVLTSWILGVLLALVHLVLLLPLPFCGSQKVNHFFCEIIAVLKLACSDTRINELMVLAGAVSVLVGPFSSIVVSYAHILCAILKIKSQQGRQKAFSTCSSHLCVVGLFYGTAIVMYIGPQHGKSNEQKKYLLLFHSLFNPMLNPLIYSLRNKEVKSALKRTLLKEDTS
How it was run: as §1

UniProt Q8VGQ3 = target: T9, UniProt Q8VGQ3
T9 sequence (whole entry): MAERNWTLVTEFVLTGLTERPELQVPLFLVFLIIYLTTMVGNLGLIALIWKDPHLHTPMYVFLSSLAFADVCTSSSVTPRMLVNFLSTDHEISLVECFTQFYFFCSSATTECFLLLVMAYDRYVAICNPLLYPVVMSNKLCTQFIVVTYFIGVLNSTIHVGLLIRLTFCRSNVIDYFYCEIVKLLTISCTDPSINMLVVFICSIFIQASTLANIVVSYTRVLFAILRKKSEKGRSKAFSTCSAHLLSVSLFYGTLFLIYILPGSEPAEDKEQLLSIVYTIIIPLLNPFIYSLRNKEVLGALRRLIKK
How it was run: as §1

UniProt Q8VGK6 = target: UniProt Q8VGK6
How it was run: as §1

Measured: odorant receptor agonist call

CC(C)CC(=O)O
inactive: UniProt Q8VGJ3 | UniProt Q8VGL0

CCCCCOC(C)=O
inactive: UniProt Q8VGJ3 | UniProt Q8VGL0

CC(=O)OC1CC2CCC1(C)C2(C)C (stereo not drawn)
inactive: UniProt Q8VGJ3 | UniProt Q8VGL0

CC(C)=CCCC(C)=CC=O
inactive: UniProt Q8VGJ3 | UniProt Q8VGL0

C=CC(C)(O)CCC=C(C)C (stereo not drawn)
inactive: UniProt Q8VGJ3 | UniProt Q8VGL0

C=CCc1ccc(OC)c(OC)c1
inactive: UniProt Q8VGJ3 | UniProt Q8VGL0

O=C1CCCCCCCCCCCCCCO1
inactive: UniProt Q8VGJ3 | UniProt Q8VGL0

CCCCCCCCC=O
not listed: UniProt Q8VGK6
inactive: all other assays above

CC(C)C=O
inactive: UniProt Q8VGJ3 | UniProt Q8VGL0

CC1COCc2cc3c(cc21)C(C)(C)C(C)C3(C)C (stereo not drawn)
inactive: UniProt Q8VGL0
active: UniProt Q8VGJ3

CC(=O)c1ccccc1
active: UniProt Q8VGH1 | UniProt Q8VGJ5 | UniProt Q8VGK6
inactive: all other assays above

CC(C)(O)CCCC1=CCC(C=O)CC1 (stereo not drawn)
not listed: UniProt Q8VGK6
inactive: all other assays above

O=C1CCCCC1
active: UniProt Q8VGJ5 | UniProt Q8VGL0 | UniProt Q8VGL7 | UniProt Q8VGM2
inactive: UniProt Q8VGH1 | UniProt Q8VGJ1 | UniProt Q8VGP6 | UniProt Q8VGQ3

CCCCCCCCCC=O
not listed: UniProt Q8VGK6
inactive: all other assays above

CCCCCCCC=O
not listed: UniProt Q8VGK6
inactive: all other assays above

CCCCCC(=O)O
not listed: UniProt Q8VGK6
inactive: all other assays above

CC12CCC(CC1)C(C)(C)O2
inactive: UniProt Q8VGJ3 | UniProt Q8VGL0

CCCCCC(C)=O
active: UniProt Q8VGJ5
not listed: UniProt Q8VGK6
inactive: all other assays above

CCCCO
inactive: UniProt Q8VGJ3 | UniProt Q8VGL0

c1cnccn1
inactive: UniProt Q8VGJ3 | UniProt Q8VGL0

COc1ccccc1O
inactive: UniProt Q8VGJ3 | UniProt Q8VGL0

CC(=O)C(C)=O
inactive: UniProt Q8VGL0
active: UniProt Q8VGJ3

C=CCc1ccc(O)c(OC)c1
inactive: UniProt Q8VGJ3 | UniProt Q8VGL0

CCCCCCC=O
not listed: UniProt Q8VGK6
inactive: all other assays above

C=C(C)C1CC=C(C)C(=O)C1 (stereo not drawn)
active: UniProt Q8VGH1 | UniProt Q8VGJ5 | UniProt Q8VGK6
inactive: all other assays above

CC12CCC(C1)C(C)(C)C2=O (stereo not drawn)
active: UniProt Q8VGJ5 | UniProt Q8VGL0 | UniProt Q8VGL7
not listed: UniProt Q8VGJ3 | UniProt Q8VGK6
inactive: all other assays above

COC(=O)c1ccccc1O
inactive: UniProt Q8VGJ3 | UniProt Q8VGL0

COc1cc(C=O)ccc1O
inactive: UniProt Q8VGJ3 | UniProt Q8VGL0
